Assay results reported in article PMC11456535, “Receptor activity-modifying protein modulation of parathyroid hormone-1 receptor function and signaling” (Frontiers in Pharmacology, 2024).
These are yes or no findings as the source states them, for the method shown. In cells and extracts the contact can be indirect. Some binding calls cover weakened binding; strength is not graded here.

Protein sequences, listed by entry. Tags and fused reporters are not part of them. Residues count along the entry.
UniProt Q03431, residues 27-593: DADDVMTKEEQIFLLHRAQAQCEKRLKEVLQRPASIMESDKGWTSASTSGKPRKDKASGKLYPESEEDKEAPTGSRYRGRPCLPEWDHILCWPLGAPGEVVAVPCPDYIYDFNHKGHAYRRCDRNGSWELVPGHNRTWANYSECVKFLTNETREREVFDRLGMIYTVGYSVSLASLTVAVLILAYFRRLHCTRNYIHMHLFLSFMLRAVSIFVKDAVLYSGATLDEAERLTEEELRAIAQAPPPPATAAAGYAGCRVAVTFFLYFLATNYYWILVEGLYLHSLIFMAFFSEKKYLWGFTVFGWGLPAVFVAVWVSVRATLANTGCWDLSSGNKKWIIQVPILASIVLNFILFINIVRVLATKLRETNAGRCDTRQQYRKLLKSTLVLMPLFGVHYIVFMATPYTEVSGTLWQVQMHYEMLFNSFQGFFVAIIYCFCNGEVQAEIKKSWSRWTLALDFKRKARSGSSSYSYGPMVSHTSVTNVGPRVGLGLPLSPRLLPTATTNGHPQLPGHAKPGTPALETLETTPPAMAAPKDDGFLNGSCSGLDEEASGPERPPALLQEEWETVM
UniProt O60894, residues 27-148: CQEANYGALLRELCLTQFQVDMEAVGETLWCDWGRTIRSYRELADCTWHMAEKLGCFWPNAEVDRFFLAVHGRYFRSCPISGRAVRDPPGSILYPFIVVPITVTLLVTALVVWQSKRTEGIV
UniProt P32121: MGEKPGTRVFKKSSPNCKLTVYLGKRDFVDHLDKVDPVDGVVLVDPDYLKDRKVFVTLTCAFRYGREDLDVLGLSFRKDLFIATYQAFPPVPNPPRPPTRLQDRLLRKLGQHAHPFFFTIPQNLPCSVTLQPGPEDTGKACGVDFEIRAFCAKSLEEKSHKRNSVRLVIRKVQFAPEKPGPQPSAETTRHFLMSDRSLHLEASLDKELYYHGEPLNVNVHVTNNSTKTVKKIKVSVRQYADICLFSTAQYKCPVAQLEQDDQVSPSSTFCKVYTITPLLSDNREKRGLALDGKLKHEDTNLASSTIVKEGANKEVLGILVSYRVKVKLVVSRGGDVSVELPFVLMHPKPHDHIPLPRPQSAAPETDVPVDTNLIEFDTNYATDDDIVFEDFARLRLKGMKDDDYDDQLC

Legend:
[1] = molecular target: parathyroid hormone 1 receptor, C-tagged Citrine PTH1R (human) (UniProt Q03431); experiment: FRET or BRET; sensitized-emission FRET imaging at the cell surface (50-pixel membrane ROIs) of fixed COS-7 cells co-transfected with C-tagged Citrine PTH1R (acceptor) and C-tagged Cerulean RAMP (donor); NFRET as % of a Cerulean-Citrine fusion; FRET-based stoichiometric analysis (Hoppe et al., 2002)
[2] = molecular target: PTH1R of the PathHunter CHO-K1 PTH1R β-arrestin cell line (UniProt Q03431); experiment: condition: only in cells stably co-expressing RAMP3; split reporter; PathHunter Detection Kit, CHO-K1 PTH1R β-arrestin cells stably expressing RAMP3, peptide agonists 90 min at RT, chemiluminescence
[3] = molecular target: PTH1R of the PathHunter CHO-K1 PTH1R β-arrestin cell line (UniProt Q03431); experiment: split reporter; PathHunter Detection Kit, CHO-K1 PTH1R β-arrestin cells (mock or stably expressing RAMP2), peptide agonists 90 min at RT, chemiluminescence

binding [2] | binding [3] | Substance | binding [1]
 |  | receptor activity-modifying protein 1, C-tagged Cerulean RAMP1 (from UniProt O60894 27-148) | no binding
no binding | binds | β-arrestin (β-arrestin-2 isoform) of the PathHunter CHO-K1 PTH1R β-arrestin cell line (from UniProt P32121 1-409) | 
